Reference: CN114805578A
Results are given in words; binding and its absence hold for the method and conditions named. Some entries that bind do so weakly or less than the wild type.

The chains behind the UniProt entries cited, without tags or fusion partners. Residues count along the entry.
UniProt Q8N423, residues 22-460: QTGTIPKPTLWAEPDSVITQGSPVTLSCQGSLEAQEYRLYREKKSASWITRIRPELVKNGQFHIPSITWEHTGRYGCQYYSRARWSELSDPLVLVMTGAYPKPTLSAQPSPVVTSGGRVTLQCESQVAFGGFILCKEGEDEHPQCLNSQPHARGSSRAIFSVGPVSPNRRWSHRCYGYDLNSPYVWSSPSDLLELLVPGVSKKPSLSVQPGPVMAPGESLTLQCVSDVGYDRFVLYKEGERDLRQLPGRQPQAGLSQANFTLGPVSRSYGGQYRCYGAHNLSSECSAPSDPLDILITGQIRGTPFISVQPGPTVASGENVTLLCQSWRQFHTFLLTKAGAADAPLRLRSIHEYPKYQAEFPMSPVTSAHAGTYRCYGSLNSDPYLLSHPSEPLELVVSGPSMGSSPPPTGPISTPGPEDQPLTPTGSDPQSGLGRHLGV

Key:
[1] = molecular target: 白细胞免疫球蛋白样受体亚家族B成员2 (LILRB2, Leukocyte Immunoglobulin Like Receptor B2) (UniProt Q8N423); assay: monoclonal phage ELISA, 100 ng coated antigen per well, BSA as parallel negative control, OD450
[2] = molecular target: 白细胞免疫球蛋白样受体亚家族B成员2 (LILRB2, Leukocyte Immunoglobulin Like Receptor B2) (UniProt Q8N423); assay: phage ELISA round 1 on coated LILRB2, anti-M13-HRP detection, OD450
[3] = molecular target: 白细胞免疫球蛋白样受体亚家族B成员2 (LILRB2, Leukocyte Immunoglobulin Like Receptor B2) (UniProt Q8N423); assay: competitive phage ELISA round 2 on coated LILRB2, HLA amount raised 4-fold

Measured: binding

B1: 白细胞免疫球蛋白样受体亚家族B成员2(LILRB2)的羊驼纳米抗体, SEQ ID No.3 (VHH)
VHH: AVQLVESGGGLVQAGGSLRLSCAASGFSLEYYSIAWFRQAPGKEREGVSCINLSGDTREYLDSVKGRFAISRDNAKNTVYLQMNSLKPEDTAVYYCAAAWGGVVASFLDEYEYWGQGTQVTVSS
binds: all assays above

B2: 白细胞免疫球蛋白样受体亚家族B成员2(LILRB2)的羊驼纳米抗体, SEQ ID No.4 (VHH)
VHH: AVQLVESGGGLVQVGGSLRLSCAASGRAFSGYYMGWFRQAPGKERVFVAVISWTGAFTYYADGARGRFTISRDTAKNTVYLQVNSLKPEDTAIYYCAAVEGRRSILPRDYNYWGQGTQVTVSS
binds: all assays above
